From patent US4816449A (Immunetech Pharmaceuticals, priority 1986, dated 1989) come the findings set out here.

HELM strings list residues between dots; [ac] is acetyl, [am] amide, other brackets name non-standard units. Where no end group is shown, it is not given here. The star is where a group is joined. Boc = CC(C)(C)OC(=O)*

One data set in a line: solution-phase peptide synthesis. The conditions noted are these: late stage modification step.
Turning to Asp-Thr-Asp-Pro-Arg, the step yield entry is recorded as “about 60-80%”.
In the case of Boc-DTDPR, the step yield entry is reported as “about 40-60%”.

Still in this data set, the particulars now being: whole synthesis, overall.
With Asp-Ser-Asp-Ala-Arg, the isolated yield result is on record as “about 25%”.
As for Asp-Thr-Asp-Pro-Arg, the isolated yield result is recorded as “approximately 20%”.
Turning to PEPTIDE1{D.S.D.P.R}$$$$V2.0, the isolated yield result is reported as “about 18%”.
With PEPTIDE1{D.S.E.P.R}$$$$V2.0, the isolated yield entry was “about 20%”.
